Laboratory results reported in article PMC12222831.
No constants are given. Whether binding was seen depends on the method and setting. Binding seen in cells or lysates may run through a third protein. A yes stands for co-enrichment or nearness to the bait. Other partners may have been found.

The chains behind the UniProt entries cited, without tags or fusion partners. Residues count along the entry.
UniProt P11021, residues 19-654: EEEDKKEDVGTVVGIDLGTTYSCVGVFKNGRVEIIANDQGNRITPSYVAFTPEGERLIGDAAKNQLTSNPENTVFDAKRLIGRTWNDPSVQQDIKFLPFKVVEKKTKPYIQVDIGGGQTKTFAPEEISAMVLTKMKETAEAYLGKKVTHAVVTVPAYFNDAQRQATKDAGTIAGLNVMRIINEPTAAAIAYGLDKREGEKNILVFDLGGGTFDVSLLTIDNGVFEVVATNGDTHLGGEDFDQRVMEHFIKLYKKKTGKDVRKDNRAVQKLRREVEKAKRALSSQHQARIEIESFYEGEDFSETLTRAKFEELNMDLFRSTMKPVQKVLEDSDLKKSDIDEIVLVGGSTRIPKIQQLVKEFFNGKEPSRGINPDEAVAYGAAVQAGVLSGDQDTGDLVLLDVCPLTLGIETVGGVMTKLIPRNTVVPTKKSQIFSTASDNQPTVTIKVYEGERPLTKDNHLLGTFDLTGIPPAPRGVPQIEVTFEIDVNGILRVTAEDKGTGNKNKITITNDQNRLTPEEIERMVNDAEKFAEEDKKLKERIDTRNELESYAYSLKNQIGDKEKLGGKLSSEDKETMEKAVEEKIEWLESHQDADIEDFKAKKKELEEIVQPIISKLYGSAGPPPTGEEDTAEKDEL
UniProt P19474: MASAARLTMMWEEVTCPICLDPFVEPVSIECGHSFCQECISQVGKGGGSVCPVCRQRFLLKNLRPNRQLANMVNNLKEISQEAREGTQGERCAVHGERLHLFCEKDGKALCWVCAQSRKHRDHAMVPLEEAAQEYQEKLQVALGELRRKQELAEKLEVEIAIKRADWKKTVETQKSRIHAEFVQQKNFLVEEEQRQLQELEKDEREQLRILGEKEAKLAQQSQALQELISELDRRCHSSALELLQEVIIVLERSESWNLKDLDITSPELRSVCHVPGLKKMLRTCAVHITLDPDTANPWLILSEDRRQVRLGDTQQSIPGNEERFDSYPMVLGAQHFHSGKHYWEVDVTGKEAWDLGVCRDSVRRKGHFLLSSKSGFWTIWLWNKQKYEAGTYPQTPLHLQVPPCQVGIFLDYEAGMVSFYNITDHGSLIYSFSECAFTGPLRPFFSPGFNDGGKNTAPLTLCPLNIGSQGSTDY

Key:
Assay in all cases: affinity purification with mass spectrometry; immunoprecipitation with anti-AKR1C3 or anti-HSPA5 from lysates of OE33 AKR1C3 and SKGT-4 cells; LC-MS/MS, MaxQuant label-free quantification
[1] = target: Heat-shock-protein family A member 5 (HSPA5), endogenous in EAC cells (human (endogenous in OE33 and SKGT-4)) (UniProt P11021)
[2] = target: T1, Aldo-keto reductase 1C3 (AKR1C3), endogenous in SKGT-4 cells (human (endogenous in SKGT-4)) (UniProt P42330)
T1 sequence: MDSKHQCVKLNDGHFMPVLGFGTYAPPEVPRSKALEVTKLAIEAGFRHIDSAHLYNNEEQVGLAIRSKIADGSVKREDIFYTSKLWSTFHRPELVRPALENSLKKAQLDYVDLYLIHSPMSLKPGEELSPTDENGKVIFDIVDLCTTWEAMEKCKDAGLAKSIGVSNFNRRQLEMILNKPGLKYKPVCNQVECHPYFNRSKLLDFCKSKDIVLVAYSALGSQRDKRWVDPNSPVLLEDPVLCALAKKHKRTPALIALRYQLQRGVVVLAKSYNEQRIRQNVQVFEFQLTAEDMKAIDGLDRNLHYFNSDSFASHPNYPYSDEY

[3] = target: T2, Aldo-keto reductase 1C3 (AKR1C3), overexpressed in OE33 cells (OE33 AKR1C3) (UniProt P42330)
T2 sequence: T1 sequence

In the case of “Tripartite motif-containing protein 21 (TRIM21), endogenous in EAC cells (from UniProt P19474 1-475)”, the binding [1] was “binds”.

With “Heat-shock-protein family A member 5 (HSPA5), endogenous in EAC cells (from UniProt P11021 19-654)” the binding [2] was “binds” and the binding [3] was “binds”.
